At least one read-out could not be matched to a standard name with certainty.
Assay: Characterisation of the enzyme activity of the CHI following expression of the vector pET28b_CHI in E. coli
Type: biochemical
Settings: CHI from E. ramulus expressed in E. coli (pET28b_CHI), purified

B1: Eubacterium ramulus DSM 16296 chalcone isomerase (CHI), wild type, SEQ ID NO:3 (Eubacterium ramulus) (protein)
chain: MADFKFEPMRSLIYVDCVSEDYRPKLQRWIYKVHIPDSISQFEPYVTKYAFYPSFPIPPQGDRFGYARMQLTEHHWLVSDLDPRLEIKAIAETFPMDVLVWQGQIPAAAHTDAQIDSDGDAGNAARKSNNAEGNPFIFAFLPMWWEKDLKGKGRTIEDGANYRFNMTIGFPEGVDKAEGEKWLFEKVVPILQAAPECTRVLASAVKKDINGCVMDWVLEIWFENQSGWYKVMVDDMKALEKPSWAQQDAFPFLKPYHNVCSAAVADYTPSNNLANYRGYITMR
**Q.** Which kcat/KM does the source give for B1 here?
**A.** The kcat/KM was 1.13e+07 M⁻¹ s⁻¹.
